The record followed here is article doi:10.1101/679936.

The target of assay [1] is T1, FLAG-SREBP1a (UniProt P36956).
T1 sequence: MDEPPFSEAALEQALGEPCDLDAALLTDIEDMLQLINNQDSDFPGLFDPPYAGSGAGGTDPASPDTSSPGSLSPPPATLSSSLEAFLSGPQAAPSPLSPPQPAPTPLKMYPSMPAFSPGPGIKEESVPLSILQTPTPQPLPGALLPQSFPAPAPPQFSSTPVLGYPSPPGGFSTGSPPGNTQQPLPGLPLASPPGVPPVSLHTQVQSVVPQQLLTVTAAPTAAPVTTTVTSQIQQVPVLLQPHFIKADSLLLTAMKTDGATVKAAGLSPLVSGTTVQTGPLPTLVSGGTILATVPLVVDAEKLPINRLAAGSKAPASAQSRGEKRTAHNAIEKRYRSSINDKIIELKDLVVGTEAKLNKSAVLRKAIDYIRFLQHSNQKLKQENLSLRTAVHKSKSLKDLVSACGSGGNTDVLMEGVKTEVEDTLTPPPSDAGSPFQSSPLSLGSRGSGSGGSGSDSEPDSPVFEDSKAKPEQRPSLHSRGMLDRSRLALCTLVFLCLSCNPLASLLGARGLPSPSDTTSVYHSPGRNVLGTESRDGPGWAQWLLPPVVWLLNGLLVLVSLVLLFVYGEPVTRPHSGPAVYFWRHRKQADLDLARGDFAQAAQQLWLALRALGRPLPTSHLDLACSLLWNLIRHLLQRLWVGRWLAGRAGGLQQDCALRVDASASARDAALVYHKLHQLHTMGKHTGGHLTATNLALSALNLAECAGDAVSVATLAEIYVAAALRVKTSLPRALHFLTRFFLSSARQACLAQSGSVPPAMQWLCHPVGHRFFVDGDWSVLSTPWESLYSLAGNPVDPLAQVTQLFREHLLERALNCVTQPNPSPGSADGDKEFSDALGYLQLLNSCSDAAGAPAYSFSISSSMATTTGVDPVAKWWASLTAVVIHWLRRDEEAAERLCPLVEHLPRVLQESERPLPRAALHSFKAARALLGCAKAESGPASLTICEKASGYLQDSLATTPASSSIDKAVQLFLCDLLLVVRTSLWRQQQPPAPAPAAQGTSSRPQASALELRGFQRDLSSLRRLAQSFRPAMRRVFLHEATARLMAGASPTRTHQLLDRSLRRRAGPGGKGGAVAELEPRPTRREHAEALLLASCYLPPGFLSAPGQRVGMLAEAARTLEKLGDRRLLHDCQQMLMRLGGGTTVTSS
Description: co-IP.

The target of assay [2] is T2, FLAG-SREBP2 (UniProt Q12772).
T2 sequence: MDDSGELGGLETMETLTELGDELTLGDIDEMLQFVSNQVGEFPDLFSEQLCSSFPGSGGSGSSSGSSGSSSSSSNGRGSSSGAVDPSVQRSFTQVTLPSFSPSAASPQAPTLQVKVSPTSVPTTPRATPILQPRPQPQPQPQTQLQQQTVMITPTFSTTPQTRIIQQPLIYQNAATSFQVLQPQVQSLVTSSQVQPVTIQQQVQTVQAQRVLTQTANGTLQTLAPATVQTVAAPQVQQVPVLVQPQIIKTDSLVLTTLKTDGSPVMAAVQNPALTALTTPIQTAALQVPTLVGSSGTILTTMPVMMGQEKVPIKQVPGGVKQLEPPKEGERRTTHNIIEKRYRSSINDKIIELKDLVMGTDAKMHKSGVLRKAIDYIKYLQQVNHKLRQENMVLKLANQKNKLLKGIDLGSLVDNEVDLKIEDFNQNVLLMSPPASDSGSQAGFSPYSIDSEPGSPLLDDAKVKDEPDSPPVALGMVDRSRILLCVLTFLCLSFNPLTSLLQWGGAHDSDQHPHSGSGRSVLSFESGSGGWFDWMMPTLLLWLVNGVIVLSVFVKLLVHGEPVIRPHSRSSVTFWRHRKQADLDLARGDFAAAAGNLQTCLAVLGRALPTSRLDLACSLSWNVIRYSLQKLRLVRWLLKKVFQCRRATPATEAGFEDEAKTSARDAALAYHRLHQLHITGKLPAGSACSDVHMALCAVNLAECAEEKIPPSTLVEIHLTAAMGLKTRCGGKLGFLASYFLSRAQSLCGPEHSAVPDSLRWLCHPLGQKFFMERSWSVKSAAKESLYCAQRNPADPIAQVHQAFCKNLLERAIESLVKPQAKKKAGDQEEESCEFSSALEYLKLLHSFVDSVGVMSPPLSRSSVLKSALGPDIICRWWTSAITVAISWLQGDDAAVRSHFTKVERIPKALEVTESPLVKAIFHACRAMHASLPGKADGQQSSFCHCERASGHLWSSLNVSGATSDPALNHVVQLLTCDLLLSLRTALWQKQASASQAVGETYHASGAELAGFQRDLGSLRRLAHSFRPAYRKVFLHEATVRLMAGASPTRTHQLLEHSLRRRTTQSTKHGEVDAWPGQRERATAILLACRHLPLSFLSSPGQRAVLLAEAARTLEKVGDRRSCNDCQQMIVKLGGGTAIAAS
In words: co-IP.

Results are given in words; binding and its absence hold for the method and conditions named. Binding seen in cells or lysates may run through a third protein. Some binding calls cover weakened binding; strength is not graded here. Where a sequence is shown, tags or fusion partners need not be part of it.

B1: GFP-SCAP (protein, UniProt P97260 1-1276)
chain: MTLTERLREKISQAFYNHGLLCASYPIPIILFTGLCILACCYPLLKLPLPGTGPVEFSTPVKDYSPPPVDSDHKQGEPSEQPEWYVGAPVAYIQQIFVKSSVSPWHKNLLAVDVFRLPLSRAFQLVEEIRNHVLRDSSGTKSLEEVCLQVTDLLPGLRKLRNLLPEHGCLLLSPGNFWQNDWERFHADPDIIGTIHQHEPKTLQTSATLKDLLFGVPGKYSGVSLYTRKRTVSYTITLVFQRYHAKFLSSLRARLMLLHPSPNCSLRAENLVHVHFKEEIGIAELIPLVTTYIILFAYIYFSTRKIDMVKSKWGLALAAVVTVLSSLLMSVGLCTLFGLTPTLNGGEIFPYLVVVIGLENVLVLTKSVVSTPVDLEVKLRIAQGLSSESWSIMKNVATELGIILIGYFTLVPAIQEFCLFAVVGLVSDFFLQMFFFTTVLSIDIRRMELADLNKRLPPESCLPSAKPVGRPARYERQLAVRPAMPHTITLQPSSFRNLRLPKRLRVIYFLARTRLAQRLIMAGTVVWIGILVYTDPAGLRTYLAAQVTEQSPLGEGSLGPMPVPSGVLPASRPDPAFSIFPPDAPKLPENQTVPGELPEHAAPAEGVHDSRAPEVTWGPEDEELWRRLSFRHWPTLFNYYNITLAKRYISLLPVIPVTLRLNPQEALEGRQPQDGRSAWAPPESLPAGLWEAGPKGPGGTQAHGDITLYKVAALGLAAGIVLVLLLLCLYRVLCPRNYGQPGGGAGRRRRGELPCDDYGYAPPETEIVPLVLRGHLMDIECLASDGMLLVSCCLAGQVCVWDAQTGDCLTRIPRPGSRRDSCGGGAFETQENWERLSDGGKTSPEEPGESPPLRHRPRGPPQPALFGDQPDLTCLIDTNFSVQLPPEPTQPEPRHRAGCGRARDSGYDFSRLVQRVYQEEGLAAVRMPALRPPSPGSPLPQASQEDGAAPEKGSPPLAWAPSTAGSIWSLELQGNLIVVGRSSGRLEVWDAIEGVLCCSNDEVSSGITALVFLDRRIVAARLNGSLDFFSLETHTSLSPLQFRGTPGRGSSPSSSVYSSSNTVACHLTHTVPCAHQKPITALRAAAGRLVTGSQDHTLRVFRLEDSCCLFTLQGHSGAITTVYIDQTMVLASGGQDGAICLWDVLTGSRVSHTFAHRGDVTSLTCTTSCVISSGLDDLINIWDRSTGIKLYSIQQDLGCGASLGVISDNLLVTGGQGCVSFWDLNYGDLLQTVYLGKNSEAQPARQILVLDNAAIVCNFGSELSLVYVPSVLEKLD
With B1, the binding entry in assay [1] and in assay [2] was “binds” in each case.

B2: Bap31, endogenous in HEK 293T (protein, UniProt P51572 1-246)
chain: MSLQWTAVATFLYAEVFVVLLLCIPFISPKRWQKIFKSRLVELLVSYGNTFFVVLIVILVLLVIDAVREIRKYDDVTEKVNLQNNPGAMEHFHMKLFRAQRNLYIAGFSLLLSFLLRRLVTLISQQATLLASNEAFKKQAESASEAAKKYMEENDQLKKGAAVDGGKLDVGNAEVKLEEENRSLKADLQKLKDELASTKQKLEKAENQVLAMRKQSEGLTKEYDRLLEEHAKLQAAVDGPMDKKEE
With B2, the binding entry in assay [1] and in assay [2] was “no binding” each time.
